36 compounds from PubChem BioAssay AID1487 (National Center for Advancing Translational Sciences (NCATS), 2009) can be followed below.

This is one part of the list. These are further read-outs of the screen, such as a control signal, another cell line or another target. No call is given for them. Compounds called inactive in the main read-out are mostly missing here. Potencies come from curve fits of mixed quality, noted in brackets.

A short description of this assay: qHTS Assay for Modulators of Lamin A Splicing. The following applies: HeLa LMNA splicing GFP/RFP minigene ratio, 48 h. Put shortly:
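S3 HeLa stable clones carrying a lamin A-EGFP splicing minigene plus DsRed2 were seeded at 600 cells/well in Opti-MEM with 2% FBS, pin-dosed and incubated 48 h at 37°C. Acumen cytometry (488 nm) gave the GFP/RFP total-intensity ratio.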
On the technique in general: Quantitative high-throughput screening tests each substance at several concentrations.

The mark [1] stands for this setting: measured here: RFP viability control channel.
[2] abbreviates: measured here: GFP splicing reporter channel.

Consider `COc1ccc(C(=O)NC(=S)NNC(=O)c2cnccn2)cc1OC`, for which, under setting [1], the AC50 was 5.62 µM [rising, single point].

As to `O=C(CSc1ncn[nH]1)N1N=C(c2ccc(Cl)cc2)CC1c1ccco1` (centres undefined), the AC50 under setting [2] is 20 µM [falling, partial curve, poor fit]. `O=S(=O)(NCCCCCNS(=O)(=O)c1ccccc1)c1ccccc1`: the half-maximal activity concentration (AC50) is 0.00316 µM [falling, full curve, poor fit] under setting [2] and 25.1 µM [falling, partial curve, poor fit] under setting [1].

`CC(=O)c1ccc(Sc2ccccc2N)c([N+](=O)[O-])c1`: the AC50 under setting [2] is 0.0447 µM [rising, full curve, poor fit].

As for `CC(C)N(C(=O)CSc1nnc(-c2cc3ccccc3cc2O)n1Cc1ccco1)C(C)C`, the half-maximal activity concentration (AC50) under setting [1] was 15.8 µM [rising, partial curve].

For `CCOC(=O)c1[nH]ncc1CN1CCCC(C(=O)c2cccc3ccccc23)C1` (centres undefined), the half-maximal activity concentration (AC50) runs as follows: under setting [2], 35.5 µM [falling, single point]; under setting [1], 7.94 µM [falling, partial curve, poor fit]. In the case of `CC(C)C(NC(=S)Nc1ccccc1)C(=O)O` (centres undefined), under setting [1], the concentration at half-maximal activity (AC50) was 0.00447 µM [falling, full curve, poor fit]. Consider `CCS(=O)(=O)c1nnnn1-c1ccccc1S(C)(=O)=O`, for which the AC50 under setting [1] is 17.8 µM [rising, single point]. For `Cc1ccc(C)c(N2CCN(C(=O)c3ccc(NC(=O)c4nsc5ccccc45)cc3)CC2)c1`, under setting [2], the AC50 is 0.891 µM [falling, full curve, poor fit]. For `Oc1c(CN2CCCCC2)cc(Br)c2cccnc12`, the AC50 by setting is: under setting [2], 0.00501 µM [falling, full curve, poor fit]; under setting [1], 0.01 µM [falling, full curve]. Regarding `COc1ccccc1CNC(=S)NC1CCCCC1`, the AC50 under setting [1] was 14.1 µM [rising, partial curve]. For `Cc1ccc(OCCC(=O)Nc2ccc(F)c(F)c2)cc1`, the AC50 under setting [2] was 1.41 µM [rising, partial curve, poor fit]. As to `CCCOc1ccc(/C=N/NC(=O)CSCc2ccc([N+](=O)[O-])cc2)cc1OCC`, the AC50 under setting [1] was 11.2 µM [rising, partial curve]. In the case of `CCc1ccc(/C=C2\SC(=S)N(CCC(=O)N3CCN(C)CC3)C2=O)cc1`, the half-maximal activity concentration (AC50) is 7.08 µM [falling, full curve, poor fit] under setting [2] and 8.91 µM [rising, partial curve, poor fit] under setting [1]. With `CC(C)n1cc(-c2nc(C(=O)NN)cs2)c(=O)n(Cc2ccccc2)c1=O`, the AC50 was 35.5 µM [falling, single point] under setting [2] and 35.5 µM [falling, single point] under setting [1]. On to `Oc1ccccc1-c1cc(C(F)(F)F)nc(-c2ccccc2)n1`, for which the half-maximal activity concentration (AC50) under setting [1] was 5.01 µM [falling, full curve, poor fit].

As for `COc1ccc(C=O)cc1COc1ccc(C)cc1[N+](=O)[O-]`, the concentration at half-maximal activity (AC50) by setting is: under setting [2], 25.1 µM [falling, single point]; under setting [1], 20 µM [falling, single point].

In the case of `C=CCOc1c(Cl)cc(CNc2ccc(C)c(Cl)c2)cc1OC`, the half-maximal activity concentration (AC50) was 8.91 µM [falling, partial curve] under setting [2] and 11.2 µM [falling, partial curve] under setting [1]. In the case of `CCC(OC(=O)c1cc2sccc2n1C)C(=O)NCC1CCCO1` (centres undefined), the concentration at half-maximal activity (AC50) is, setting by setting: under setting [2], 12.6 µM [rising, partial curve]; under setting [1], 22.4 µM [rising, partial curve]. For the compound `C/C(=C\C(=O)c1ccc(C)o1)Nc1ccc(C(=O)O)cc1C`, the AC50 under setting [1] was 0.447 µM [rising, partial curve, poor fit].

For the compound `Cc1nc(C)c(-c2ccc(SCC(=O)Nc3ccc(Br)cc3)nn2)s1`, the concentration at half-maximal activity (AC50) under setting [2] was 0.112 µM [falling, full curve, poor fit].

On to `CCCCCCC1CC(CC(=O)Nc2ccc([N+](=O)[O-])cc2)C(=O)O1` (centres undefined), for which the concentration at half-maximal activity (AC50) under setting [1] was 35.5 µM [rising, single point].

Consider `CCn1nc(C(=O)Nc2nc3ccccc3[nH]2)c2ccccc2c1=O`, for which, under setting [2], the concentration at half-maximal activity (AC50) was 6.31 µM [rising, partial curve]. `Cc1sc2nc(CC(N)=O)[nH]c(=O)c2c1-c1ccccc1`: the concentration at half-maximal activity (AC50) under setting [1] was 0.00447 µM [falling, full curve, poor fit]. Same read-out and setting: next, `C/C(=N\NC(=O)c1ccccc1O)c1ccc(Br)s1`: 11.2 µM [rising, single point].

Consider `Cc1c(Br)c([N+](=O)[O-])nn1CC(=O)NCc1ccccc1`, for which the concentration at half-maximal activity (AC50) under setting [2] was 8.91 µM [rising, partial curve]. Still for that read-out and setting: then `CC(/C=N/NC(=O)c1ccco1)=C\c1ccccc1`, with 0.562 µM [rising, partial curve, poor fit]. On to `O=C(NC(=S)Nc1ccccc1Cl)c1cnn2c(C(F)(F)F)cc(C(F)(F)F)nc12`, for which the AC50 by setting is: under setting [2], 6.31 µM [falling, single point]; under setting [1], 4.47 µM [falling, full curve]. Turning to `CN(c1ccc(C(=O)Nc2nccs2)cc1)S(=O)(=O)c1ccccc1`, the AC50 under setting [1] was 14.1 µM [rising, partial curve]. The same measure, in the same setting: next, `COC(=O)c1ccc(C(=O)Nc2nnc(-c3cccnc3)o2)cc1`: 3.55 µM [rising, partial curve, poor fit]; `CC(C)Cn1c(-c2ccco2)nc2c(c(=O)c3ccccc3n2C)c1=O`: 14.1 µM [rising, single point]. Take `COc1ccc(S(=O)(=O)N2CCN(c3cc(-c4ccccc4)nc4ncnn34)CC2)cc1`: the AC50 runs as follows: under setting [2], 11.2 µM [rising, partial curve]; under setting [1], 14.1 µM [rising, partial curve]. With `Brc1ccc(Nc2nc(-c3cccnc3)cs2)cc1`, the AC50 is, setting by setting: under setting [2], 25.1 µM [falling, single point]; under setting [1], 11.2 µM [falling, single point]. With `Cn1c(=O)n(C)c2cc(NS(=O)(=O)c3cccs3)ccc21`, the AC50 was 35.5 µM [falling, single point] under setting [2] and 20 µM [falling, single point] under setting [1]. Turning to `O=C(CCl)N1c2ccccc2OCC1c1ccccc1` (centres undefined), the AC50 is 31.6 µM [falling, single point] under setting [2] and 35.5 µM [falling, single point] under setting [1].

As to `Cc1cc(NC(=O)CSc2nccn2-c2cccc(C)c2C)no1`, the AC50 under setting [1] was 0.00708 µM [falling, full curve].

The AC50 is the concentration at which the activity in the assay is half-maximal.
